Four molecules from publication PMC5261017 can be followed below.

These are yes or no findings as the source states them, for the method shown. In cells and extracts the contact can be indirect. A yes stands for co-enrichment or nearness to the bait. Other partners may have been found. Sequences can lack the tags named with a protein.

The experiment concerns the target T1, Heme oxygenase 1 (recombinant FLAGHO-1) (human) (UniProt P09601).
T1 sequence: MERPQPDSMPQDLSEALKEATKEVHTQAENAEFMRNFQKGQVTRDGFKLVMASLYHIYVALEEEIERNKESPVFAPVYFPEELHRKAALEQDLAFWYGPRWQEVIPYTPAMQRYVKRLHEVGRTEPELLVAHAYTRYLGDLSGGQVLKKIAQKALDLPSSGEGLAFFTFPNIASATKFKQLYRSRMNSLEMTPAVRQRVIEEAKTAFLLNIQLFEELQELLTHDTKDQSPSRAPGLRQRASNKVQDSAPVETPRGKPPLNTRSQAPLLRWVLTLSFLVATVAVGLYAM
The experiment is described as follows: affinity purification with mass spectrometry; PC3 cells transiently transfected with FLAGHO-1 or empty FLAG vector and treated with H2O2 (200 uM); extract in 20 mM Tris, 150 mM NaCl, 5 mM MgCl2, 0.5% NP40, pH 7.5; Flag magnetic beads 2 h at 4 °C; eluted with 3XFLAG peptide; trypsin digest, LC-ESI MS/MS; only proteins differential against the empty FLAG vector were kept.

B1: Tropomodulin 3 (protein, UniProt Q9NYL9 1-352)
chain: MALPFRKDLEKYKDLDEDELLGNLSETELKQLETVLDDLDPENALLPAGFRQKNQTSKSTTGPFDREHLLSYLEKEALEHKDREDYVPYTGEKKGKIFIPKQKPVQTFTEEKVSLDPELEEALTSASDTELCDLAAILGMHNLITNTKFCNIMGSSNGVDQEHFSNVVKGEKILPVFDEPPNPTNVEESLKRTKENDAHLVEVNLNNIKNIPIPTLKDFAKALETNTHVKCFSLAATRSNDPVATAFAEMLKVNKTLKSLNVESNFITGVGILALIDALRDNETLAELKIDNQRQQLGTAVELEMAKMLEENTNILKFGYQFTQQGPRTRAANAITKNNDLVRKRRVEGDHQ
Consider B1, for which the binding entry is “binds”.

B2: Testis-derived transcript (protein, UniProt Q9UGI8-1 1-421)
chain: MDLENKVKKMGLGHEQGFGAPCLKCKEKCEGFELHFWRKICRNCKCGQEEHDVLLSNEEDRKVGKLFEDTKYTTLIAKLKSDGIPMYKRNVMILTNPVAAKKNVSINTVTYEWAPPVQNQALARQYMQMLPKEKQPVAGSEGAQYRKKQLAKQLPAHDQDPSKCHELSPREVKEMEQFVKKYKSEALGVGDVKLPCEMDAQGPKQMNIPGGDRSTPAAVGAMEDKSAEHKRTQYSCYCCKLSMKEGDPAIYAERAGYDKLWHPACFVCSTCHELLVDMIYFWKNEKLYCGRHYCDSEKPRCAGCDELIFSNEYTQAENQNWHLKHFCCFDCDSILAGEIYVMVNDKPVCKPCYVKNHAVVCQGCHNAIDPEVQRVTYNNFSWHASTECFLCSCCSKCLIGQKFMPVEGMVFCSVECKKRMS
B2: the binding entry was “binds”.

B3: Thyroid hormone receptor-associated protein 3 (protein, UniProt Q9Y2W1 1-955)
chain: MSKTNKSKSGSRSSRSRSASRSRSRSFSKSRSRSRSLSRSRKRRLSSRSRSRSYSPAHNRERNHPRVYQNRDFRGHNRGYRRPYYFRGRNRGFYPWGQYNRGGYGNYRSNWQNYRQAYSPRRGRSRSRSPKRRSPSPRSRSHSRNSDKSSSDRSRRSSSSRSSSNHSRVESSKRKSAKEKKSSSKDSRPSQAAGDNQGDEAKEQTFSGGTSQDTKASESSKPWPDATYGTGSASRASAVSELSPRERSPALKSPLQSVVVRRRSPRPSPVPKPSPPLSSTSQMGSTLPSGAGYQSGTHQGQFDHGSGSLSPSKKSPVGKSPPSTGSTYGSSQKEESAASGGAAYTKRYLEEQKTENGKDKEQKQTNTDKEKIKEKGSFSDTGLGDGKMKSDSFAPKTDSEKPFRGSQSPKRYKLRDDFEKKMADFHKEEMDDQDKDKAKGRKESEFDDEPKFMSKVIGANKNQEEEKSGKWEGLVYAPPGKEKQRKTEELEEESFPERSKKEDRGKRSEGGHRGFVPEKNFRVTAYKAVQEKSSSPPPRKTSESRDKLGAKGDFPTGKSSFSITREAQVNVRMDSFDEDLARPSGLLAQERKLCRDLVHSNKKEQEFRSIFQHIQSAQSQRSPSELFAQHIVTIVHHVKEHHFGSSGMTLHERFTKYLKRGTEQEAAKNKKSPEIHRRIDISPSTFRKHGLAHDEMKSPREPGYKAEGKYKDDPVDLRLDIERRKKHKERDLKRGKSRESVDSRDSSHSRERSAEKTEKTHKGSKKQKKHRRARDRSRSSSSSSQSSHSYKAEEYTEETEEREESTTGFDKSRLGTKDFVGPSERGGGRARGTFQFRARGRGWGRGNYSGNNNNNSNNDFQKRNREEEWDPEYTPKSKKYYLHDDREGEGSDKWVSRGRGRGAFPRGRGRFMFRKSSTSPKWAHDKFSGEEGEIEDDESGTENREEKDNIQPTTE
B3: the binding entry is listed as “binds”.

B4: Aspartyl beta-hydroxylase (protein, UniProt Q12797 1-758)
chain: MAQRKNAKSSGNSSSSGSGSGSTSAGSSSPGARRETKHGGHKNGRKGGLSGTSFFTWFMVIALLGVWTSVAVVWFDLVDYEEVLGKLGIYDADGDGDFDVDDAKVLLGLKERSTSEPAVPPEEAEPHTEPEEQVPVEAEPQNIEDEAKEQIQSLLHEMVHAEHVEGEDLQQEDGPTGEPQQEDDEFLMATDVDDRFETLEPEVSHEETEHSYHVEETVSQDCNQDMEEMMSEQENPDSSEPVVEDERLHHDTDDVTYQVYEEQAVYEPLENEGIEITEVTAPPEDNPVEDSQVIVEEVSIFPVEEQQEVPPETNRKTDDPEQKAKVKKKKPKLLNKFDKTIKAELDAAEKLRKRGKIEEAVNAFKELVRKYPQSPRARYGKAQCEDDLAEKRRSNEVLRGAIETYQEVASLPDVPADLLKLSLKRRSDRQQFLGHMRGSLLTLQRLVQLFPNDTSLKNDLGVGYLLIGDNDNAKKVYEEVLSVTPNDGFAKVHYGFILKAQNKIAESIPYLKEGIESGDPGTDDGRFYFHLGDAMQRVGNKEAYKWYELGHKRGHFASVWQRSLYNVNGLKAQPWWTPKETGYTELVKSLERNWKLIRDEGLAVMDKAKGLFLPEDENLREKGDWSQFTLWQQGRRNENACKGAPKTCTLLEKFPETTGCRRGQIKYSIMHPGTHVWPHTGPTNCRLRMHLGLVIPKEGCKIRCANETKTWEEGKVLIFDDSFEHEVWQDASSFRLIFIVDVWHPELTPQQRRSLPAI
For the molecule B4, the binding result is recorded as “binds”.
